Data from paper PMC5385504.
No constants are given. Whether binding was seen depends on the method and setting. In cells and extracts the contact can be indirect. Binding can be weak; no strength is given. Sequences can lack the tags named with a protein.

B1: LEF-11^HA (BmNPV LEF-11 with HA tag, from pIZ-LEF-11^HA) (protein, UniProt O92404 1-112)
chain: MPPKNCTHLGGCNSDCLTRSEIQALFREAINTLKHTMNTEDVCAHMLDIVSFERIKEYIRANLGHFTVITDKCSKRKVCLHHKRIARLLGIKKIYHQEYKRVVSKVYKNQTW

Assays:
Test in all cases: co-IP
[1] = biological target: T1, LEF-11^HA (BmNPV LEF-11 with HA tag, from pIZ-LEF-11^HA) (Bombyx mori nucleopolyhedrovirus (BmNPV)) (UniProt O92404)
T1 sequence: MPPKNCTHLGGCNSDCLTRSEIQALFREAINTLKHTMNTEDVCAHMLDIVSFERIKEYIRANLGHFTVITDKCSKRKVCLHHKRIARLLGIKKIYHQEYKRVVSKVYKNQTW

[2] = biological target: ATAD3A^FLAG (Bombyx mori ATAD3A with FLAG tag, from pIZ-ATAD3A^FLAG) (Bombyx mori)
[3] = biological target: HSPD1^FLAG (Bombyx mori HSPD1 with FLAG tag, from pIZ-HSPD1^FLAG) (Bombyx mori)

| Molecule | binding [1] | binding [2] | binding [3] |
| --- | --- | --- | --- |
| ATAD3A^FLAG (Bombyx mori ATAD3A with FLAG tag, from pIZ-ATAD3A^FLAG) | binds | – | – |
| PP2A^FLAG (Bombyx mori PP2A with FLAG tag, from pIZ-PP2A^FLAG) | no binding | – | – |
| PP5^FLAG (Bombyx mori PP5 with FLAG tag, from pIZ-PP5^FLAG) | no binding | – | – |
| Chitinase^FLAG (BmNPV Chitinase with FLAG tag, from pIZ-Chitinase^FLAG) (Bombyx mori nucleopolyhedrovirus (BmNPV)) | no binding | – | – |
| HSPD1^FLAG (Bombyx mori HSPD1 with FLAG tag, from pIZ-HSPD1^FLAG) | binds | – | – |
| B1 | – | binds | binds |
